# Measured values taken from the supplement of paper PMC8728848.
# The list shows a part of the results.
# B1: PX9961KLbvu-535-38-535 (Bacteroides vulgatus) (protein)
# chain: DKAYTDAESYTKGLHKIYSVWALSGQDGSSSSDISGLDAGNTALLRCWWTLQEQPTDEMKNAWNDAWCTEVNYMTWTTNKVEPIEGVYQRCMYIVALVNEFLKNIPNAPESIDKESYIAQARFNRAFAYYVLMDMFALPPFITEKNYSIEPAPLSREDLFNWIEAELNEIKPNLPSPRSEYGVADQAVASALLARMYLNAEIYTGKARYTECINACNEVIKAGYQLADNYADLFKADNGENPDTKKEIIYPIIFDGDKTQSWGMAAIIIGARGAEDKDVLLAHSGVDQGWAGFRATSNLVHLFDFQNDEEPKASEIQDKRGIFYDKGRSIDITSSVSGTFETEGWSVFKFSNLNSNGQPGKNTLWVDTDFPMFRLGDIYLMYAEAVARGGEGSKASAVEYINALRKRAYGDDKHNISENWLEENNFRNLLDERGRELYWEGIRRTDLVRFDLLTSGSYTWDFKGGINTGVGVNKRYNVYPIPVTDLTVNGNLQQNEGY
# Key:
# Test in all cases: glycan array binding signal (z-score within array); higher = stronger binding
# Details in all cases: glycan notation: IUPAC condensed, linker removed
# [1] = target: GalNAc(b1-3)Gal
# How it was run: (§1)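 From the Consortium for Functional Glycomics database, 3228 arrays were curated, keeping only those whose protein sequence was available. Binding is given as a within-array Z-score averaged across arrays sharing a protein sequence and across linkers. Negative Z-scores can be read as non-binding.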
# [2] = target: GalNAc(b1-3)Gal(a1-4)Gal(b1-4)GlcNAc
# How it was run: as §1
# [3] = target: GalNAc(b1-3)Gal(a1-4)Gal(b1-4)GlcNAc(b1-3)Gal(b1-4)Glc
# How it was run: as §1
# [4] = target: GalNAc(b1-3)Gal(a1-6)Gal(b1-4)Glc
# How it was run: as §1
# [5] = target: GalNAc(b1-3)GalNAc
# How it was run: as §1
# [6] = target: GalNAc(b1-3)GlcNAc
# How it was run: as §1
# [7] = target: GalNAc(b1-4)Gal(b1-4)Glc
# How it was run: as §1
# [8] = target: GalNAc(b1-4)GlcNAc
# How it was run: as §1
# [9] = target: GalNAc(b1-4)GlcNAc(b1-2)Man
# How it was run: as §1
# [10] = target: GalNAc(b1-4)GlcNAc(b1-2)Man(a1-3)[GalNAc(b1-4)GlcNAc(b1-2)Man(a1-6)]Man(b1-4)GlcNAc(b1-4)GlcNAc
# How it was run: as §1
# [11] = target: GalNAc(b1-4)GlcNAc(b1-3)GalNAc(b1-4)GlcNAc
# How it was run: as §1
# [12] = target: GalNAc(b1-4)GlcNAc6S
# How it was run: as §1
# [13] = target: GalNAc(b1-6)GalNAc
# How it was run: as §1
# [14] = target: GalNAc3S(b1-4)GlcNAc
# How it was run: as §1
# [15] = target: GalNAc3S(b1-4)GlcNAc3S
# How it was run: as §1
# [16] = target: GalNAc3S(b1-4)[Fuc(a1-3)]GlcNAc
# How it was run: as §1
# [17] = target: GalNAc4S6S(b1-4)GlcNAc
# How it was run: as §1
# [18] = target: GalNAc6S(b1-4)GlcNAc
# How it was run: as §1
# [19] = target: Glc(a1-4)Glc
# How it was run: as §1
# [20] = target: Glc(a1-4)Glc(a1-4)Glc(a1-4)Glc
# How it was run: as §1
# [21] = target: Glc(a1-6)Glc(a1-6)Glc
# How it was run: as §1
# [22] = target: Glc(a1-6)Glc(a1-6)Glc(a1-6)Glc
# How it was run: as §1
# [23] = target: Glc(b1-4)Glc
# How it was run: as §1
# [24] = target: Glc(b1-6)Glc
# How it was run: as §1
# [25] = target: GlcA(b1-3)Gal
# How it was run: as §1
# [26] = target: GlcA(b1-3)GlcNAc
# How it was run: as §1
# [27] = target: GlcA(b1-6)Gal
# How it was run: as §1
# [28] = target: GlcA3S(b1-3)Gal(b1-4)GlcNAc(b1-2)Man
# How it was run: as §1
# [29] = target: GlcA3S(b1-3)Gal(b1-4)GlcNAc(b1-3)Gal(b1-4)Glc
# How it was run: as §1
# [30] = target: GlcNAc(a1-3)Gal(b1-4)GlcNAc
# How it was run: as §1
# [31] = target: GlcNAc(a1-4)Gal(b1-3)GlcNAc
# How it was run: as §1
# [32] = target: GlcNAc(a1-4)Gal(b1-4)GalNAc
# How it was run: as §1
# [33] = target: GlcNAc(a1-4)Gal(b1-4)GlcNAc
# How it was run: as §1
# [34] = target: GlcNAc(a1-4)Gal(b1-4)GlcNAc(b1-3)Gal(b1-4)Glc
# How it was run: as §1
# [35] = target: GlcNAc(a1-4)Gal(b1-4)GlcNAc(b1-3)Gal(b1-4)GlcNAc
# How it was run: as §1
# [36] = target: GlcNAc(a1-4)Gal(b1-4)GlcNAc(b1-3)Gal(b1-4)GlcNAc(b1-3)Gal(b1-4)GlcNAc
# How it was run: as §1
# [37] = target: GlcNAc(a1-4)Gal(b1-4)GlcNAc(b1-3)Gal(b1-4)[Fuc(a1-3)]GlcNAc(b1-3)Gal(b1-4)[Fuc(a1-3)]GlcNAc
# How it was run: as §1
# [38] = target: GlcNAc(a1-6)Gal(b1-4)GlcNAc
# How it was run: as §1
binder,measurement,setting,value
B1,glycan array binding signal (z-score),[1],-0.351
same,glycan array binding signal (z-score),[2],1.14
same,glycan array binding signal (z-score),[3],-0.002
same,glycan array binding signal (z-score),[4],0.416
same,glycan array binding signal (z-score),[5],-0.606
same,glycan array binding signal (z-score),[6],-0.582
same,glycan array binding signal (z-score),[7],-0.801
same,glycan array binding signal (z-score),[8],0.694
same,glycan array binding signal (z-score),[9],-0.613
same,glycan array binding signal (z-score),[10],0.869
same,glycan array binding signal (z-score),[11],-0.094
same,glycan array binding signal (z-score),[12],0.185
same,glycan array binding signal (z-score),[13],-0.533
same,glycan array binding signal (z-score),[14],0.715
same,glycan array binding signal (z-score),[15],-0.352
same,glycan array binding signal (z-score),[16],0.247
same,glycan array binding signal (z-score),[17],-0.411
same,glycan array binding signal (z-score),[18],-0.871
same,glycan array binding signal (z-score),[19],0.984
same,glycan array binding signal (z-score),[20],-0.42
same,glycan array binding signal (z-score),[21],-0.726
same,glycan array binding signal (z-score),[22],0.499
same,glycan array binding signal (z-score),[23],-0.497
same,glycan array binding signal (z-score),[24],0.138
same,glycan array binding signal (z-score),[25],-0.742
same,glycan array binding signal (z-score),[26],0.124
same,glycan array binding signal (z-score),[27],-0.072
same,glycan array binding signal (z-score),[28],-0.203
same,glycan array binding signal (z-score),[29],-0.814
same,glycan array binding signal (z-score),[30],-0.731
same,glycan array binding signal (z-score),[31],-0.768
same,glycan array binding signal (z-score),[32],-0.092
same,glycan array binding signal (z-score),[33],0.084
same,glycan array binding signal (z-score),[34],-0.257
same,glycan array binding signal (z-score),[35],0.221
same,glycan array binding signal (z-score),[36],-0.034
same,glycan array binding signal (z-score),[37],0.673
same,glycan array binding signal (z-score),[38],-0.543

# Pulled one by one from the entries so far, 3 records:
binder,measurement,setting,value
B1,glycan array binding signal (z-score),[33],0.084
same,glycan array binding signal (z-score),[3],-0.002
same,glycan array binding signal (z-score),[13],-0.533
